Experimental data from PubChem BioAssay AID1347075 (National Center for Advancing Translational Sciences (NCATS), 2019).
Values joined by “and” are separate entries in the source; they are usually repeats but may differ in a detail not shown here. Equal entries are not always repeated. Out of some 400,000 compounds screened, about 5,500 (1.4%) were called active. This list was built around the results that the source calls inconclusive (neither active nor inactive); the mix of calls is not that of the screen. The call rests on the fitted dose curve; in most records, active means well fitted cell-killing curve with a large enough effect; inconclusive means small, poorly fitted or top-dose-only effect, or effect the other way; inactive means flat fitted curve, though single readings scatter. Potencies of inconclusive entries are doubtful fits and often do not repeat.

Assay: qHTS assay for MDR1-selective chemotherapeutics: Primary screen using the parental adenocarcinoma cell KB-3-1; further: nearly all actives have a fitted effect of over 60% in size
Conditions: KB-3-1 viability, CellTiter-Glo ATP luminescence, 72 h; activity change, negative = cytotoxic: at 46.1 µM (top of the series)
Procedure, shortened: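 Multi-concentration cytotoxicity screen in KB-3-1 cells grown in DMEM lacking phenol red with 10% FBS. After 72 h at 37 °C with compound, ATP-dependent luminescence was recorded.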
On the % scale 0 is the no-effect control and ±100 the full control effect; potency means the concentration at half of the fitted maximal effect.

| Compound | Potency | activity change, negative = cytotoxic |
| --- | --- | --- |
| COc1cccc(CNC(=O)COc2ccc(C(=O)c3ccccc3)cc2)c1 | inconclusive: 29.1 µM [cytotoxic, single point] | – |
| Cc1ccc(-c2csc(NCCn3c(-c4ccncc4)nc4ccccc43)n2)cc1 | inconclusive: 18.4 µM [cytotoxic, single point] | – |
| CC(C)Cc1nc(C(N)=O)c2[nH]c(=O)n(-c3ccc(F)cc3)c2n1 | inconclusive: 2.31 µM [rising, full curve] | – |
| O=C(NC1CCCCC1)c1cccc(OCc2ccccc2)c1 | inconclusive: 14.6 µM [cytotoxic, partial curve, poor fit] | – |
| CC(=O)N(C)c1ccc(/C=C2\C=Cc3ccccc32)cc1 | – | inactive: -17.3% |
| CSc1nc(-c2ccc(Cl)cc2)c(C#N)c(=O)[nH]1 | – | inactive: -1.02% |
| N#Cc1c(=O)c2nc(NCc3ccccc3)ncc2n2ccccc12 | inconclusive: 25.9 µM [rising, single point] | – |
| CCOc1cc(Br)cc(/C=C2\SC(=Nc3ccccc3)NC2=O)c1O | inconclusive: 16.4 µM [cytotoxic, partial curve] | – |
| NC1=NC(c2cccc(Cl)c2)N(CCc2ccc(F)cc2)C(N)=N1 (stereo unspecified) | inconclusive: 20.6 µM [cytotoxic, single point] | – |
| Cc1cc(C)c(NC(=O)c2cccc3c2C(=O)N(C2CCCCC2)C3)c(C)c1 | active: 20.6 µM | – |
| COc1cc(/C=C(\C#N)c2nc3ccc(C)cc3[nH]2)cc([N+](=O)[O-])c1O | – | inactive: -2.14% |
| Cc1nc(-c2ccncc2)sc1C(=O)Nc1ccc(Cl)cc1 | – | inactive: -9.57% |
| O=[N+]([O-])c1ccc(N2CCN(Cc3ccccc3)CC2)c2c1no[n+]2[O-] | active: 2.06 µM | – |
| CCOC(=O)[C@]12CCC=C1N(Cc1ccco1)C(=O)[C@H](CC(=O)N1CCOCC1)C2 | – | inactive: 13.5% |
| CCOC(=O)c1ccccc1NC(=O)Cn1c(-c2nonc2N)nc2ccccc21 | active: 1.03 µM | – |
| Cc1ccc(-n2ccnc(NCc3ccccc3)c2=O)cc1C | inconclusive: 29.1 µM [cytotoxic, single point] | – |
| CCOc1ccc(C(=O)CC(C(=O)O)N2CCN(Cc3ccccc3)CC2)cc1 (stereo unspecified) | – | inactive: -3.49% |
| COc1ccc(NC(=O)/C(=C\c2ccco2)NC(=O)c2ccco2)cc1 | – | inactive: 0% |
| COc1ccc(-c2nc(Cn3c(SCc4ccc(F)cc4)nc4ccncc43)c(C)o2)cc1OC | inconclusive: 16.4 µM [cytotoxic, single point] | – |
| Cc1ccc(/C=N/NC(=O)CCCOc2ccc(Cl)cc2Cl)cc1[N+](=O)[O-] | inconclusive: 29.1 µM [cytotoxic, partial curve, poor fit] | – |
| CC(N=C1NS(=O)(=O)c2ccccc21)C(=O)NCc1ccc(F)cc1 (stereo unspecified) | – | inactive: 14% |
| O=C(Nc1ccc(Nc2ccccc2)cc1)c1ccco1 | – | inactive: 3.47% |
| Nc1ncnc2nc(SCc3ccc(Cl)cc3Cl)[nH]c12 | inconclusive: 18.4 µM [cytotoxic, partial curve, poor fit] | – |
| O=C(/C=C/C(Cl)(Cl)Cl)Nc1ccc(Cl)cc1 | inconclusive: 29.1 µM [cytotoxic, single point] | – |

| Compound | Potency | activity change, negative = cytotoxic |
| --- | --- | --- |
| COCCOC(=O)c1[nH]c2c(c1C)C(=O)CC(c1cc(OC)ccc1OC)C2 (stereo unspecified) | active: 8.2 µM | – |
| COc1cc2c(cc1NS(=O)(=O)c1cccc(C#N)c1)n(C)c(=O)n2C | inconclusive: 16.4 µM [cytotoxic, single point] | – |
| C/C(N)=C(/C#N)C(=O)COC(=O)c1cc(C)n(-c2ccc(F)cc2)c1C | inconclusive: 20.6 µM [cytotoxic, single point] and inconclusive: 9.2 µM [cytotoxic, partial curve] | – |
| CC(=O)Nc1ccc(SC[C@H](Cc2ccccc2)N2CC[C@@H](C(C)(C)C)CCC2=O)cc1 | inconclusive: 29.1 µM [cytotoxic, single point] | – |
| OCCC1CN(Cc2ccc(Oc3ncccn3)cc2)CCN1C1CCCCC1 (stereo unspecified) | – | inactive: -5.54% |
| O=C(Cc1cccs1)Nc1cccc(-c2nc3cc4ccccc4cc3[nH]2)c1 | inconclusive: 29.1 µM [cytotoxic, single point] | – |
| Cc1cccc(NC(=O)C[n+]2ccc(N(C)C)cc2)c1 | active: 13 µM | – |
| COc1cc(Cl)ccc1Nc1ncc(C(=O)N2CCN(c3ccccc3OC)CC2)c2ccccc12 | – | inactive: -1.69% |
| Cc1nc2ccc(Cl)cc2n1C | inconclusive: 29.1 µM [cytotoxic, single point] | – |
| CC(C)N1CCN(Cc2ccc(OC3CCCC3)cc2)CC1CCO (stereo unspecified) | – | inactive: 8.84% |
| COc1ccccc1C(=O)NC(CCSC)C(=O)NCCCSc1ccccc1 (stereo unspecified) | – | inactive: -1.57% |
| COc1cccc(CNC(=O)c2ccc(Cn3c(SCc4ccccc4)nc4cccnc43)cc2)c1 | – | inactive: -24.7% |
| CCOC(=O)C1=C(N)n2c(s/c(=C\c3cccs3)c2=O)=C(C(=O)OCC)C1c1cccs1 (stereo unspecified) | active: 10.3 µM | – |
| COc1ccccc1NC(=O)Cn1nnc(-c2ccccc2NS(=O)(=O)c2ccccc2)n1 | inconclusive: 23.1 µM [cytotoxic, single point] | – |
| CCNc1nc(CN2CCCCC2)nc2scc(-c3ccccc3)c12 | inconclusive: 9.2 µM [cytotoxic, partial curve, poor fit] | – |
| O=C(CSc1nc(-c2ccccc2)nc2c1CCCC2)c1ccc(F)cc1 | – | inactive: -9.5% |
| Cc1ccc(C)c(S(=O)(=O)N2CCN(C(=O)c3n[nH]c(=O)c4ccccc34)CC2)c1 | – | inactive: -9.8% |
| COc1ccc(-c2ccc(CN3C(CC(C)C)C(=O)N(Cc4cn(Cc5ccco5)nn4)CCS3(=O)=O)cc2)cc1 (stereo unspecified) | – | inconclusive: -41.2% |
| CCCCN(CC)CCNC(=O)c1cc2c(-c3ccc(Cl)cc3)nn(C)c2s1 | inconclusive: 23.1 µM [cytotoxic, single point] | – |
| O=C(Nc1ccc(Cl)cc1)Nc1ccon1 | inconclusive: 29.1 µM [cytotoxic, single point] | – |
| Cc1nc(NCc2ccccn2)c2ccccc2n1 | inconclusive: 20.6 µM [cytotoxic, partial curve] | – |
| COc1ccccc1N1CCN(C(=O)c2ccc(S(=O)(=O)N3CCCC3)cc2)CC1 | inconclusive: 29.1 µM [cytotoxic, single point] | – |
| O=C1c2ccccc2C(=O)N1c1ccc(S(=O)(=O)N2CCOCC2)cc1 | inconclusive: 9.2 µM [rising, partial curve] | – |
| CCCCN(Cc1ccccc1)C(=O)c1oc(=O)c2ccccc2c1-c1ccc(C)cc1 | inconclusive: 29.1 µM [cytotoxic, single point] | – |

| Compound | Potency | activity change, negative = cytotoxic |
| --- | --- | --- |
| COC(=O)/C(=C\Nc1ccc(Cl)cc1Cl)NC(=O)c1ccc(OC)cc1 | active: 5.8 µM | – |
| Cc1ccc(CCNC(=O)CNC(=O)c2cccs2)cc1 | – | inconclusive: 15.6% |
| COc1ccc(CN2CCCC(C(=O)N3CCc4ccccc4C3)C2)cc1OC (stereo unspecified) | – | inactive: 9.73% |
| Cc1ccc(S(=O)(=O)NCCC(c2ccc(F)cc2)c2ccco2)cc1 (stereo unspecified) | inconclusive: 20.6 µM [cytotoxic, single point] | – |
| COc1cccc(CNc2ccc3c(c2)ncn3C(C)C)c1OC | inconclusive: 29.1 µM [cytotoxic, single point] | – |
| NC(=O)c1cccc(-c2ccnc3c2CC(C(=O)NCc2ccccc2)O3)c1 (stereo unspecified) | active: 3.66 µM | – |
| COc1cccc(CC(NC(C)=O)C(=O)NC2CCN(c3c(Cc4ccccc4)c(C)nc4ncnn34)CC2)c1 (stereo unspecified) | inconclusive: 20.6 µM [rising, partial curve] | – |
| CN(C)c1cccc(-c2ncc(F)c(N3CCC(C(N)=O)CC3)n2)c1 | inconclusive: 16.4 µM [rising, partial curve, poor fit] | – |
| O=C(CCCn1c(=S)[nH]c2cc3c(cc2c1=O)OCO3)N1CCN(c2ccc(Cl)cc2)CC1 | inconclusive: 22.4 µM [cytotoxic, single point] | – |
| Cc1ccc(-n2c(C)nnc2SCC(=O)N2CCc3ccccc3C2)cc1C | – | inactive: 3.14% |
| S=C(NCCc1ccccc1)Nc1ccc(Br)cc1 | inconclusive: 29.1 µM [cytotoxic, single point] | – |
| CC(=O)NC(c1ccc(Cl)cc1Cl)c1ccc2cccnc2c1O (stereo unspecified) | inconclusive: 0.651 µM [cytotoxic, full curve, poor fit] | – |
| CC(=O)Nc1cccc(-c2ccnc3c2CC(C)(C(=O)Nc2cccc(C(C)=O)c2)O3)c1 (stereo unspecified) | inconclusive: 29.1 µM [cytotoxic, single point] | – |
| N#CN=CN1CC=C(c2ccc(Cl)cc2)CC1 | active: 9.2 µM | – |
| CCN1/C(=C/c2ccc3cccc(C)c3[n+]2CC)Sc2ccccc21 | inconclusive: 1.84 µM [cytotoxic, full curve, poor fit] | – |
| COc1ccccc1CNC(=O)CCn1c(=O)c2ccccc2n(CC(=O)Nc2ccc(C)cc2C)c1=O | – | inactive: 3.42% |
| Cc1ccc(S(=O)(=O)N2CCCCC2)cc1C(=O)Nc1cccnc1 | – | inconclusive: -1.01% |
| NCCNC(=O)Cn1c(=O)c2c3c(sc2n(Cc2ccccc2)c1=O)CCCC3 | inconclusive: 29.1 µM [cytotoxic, single point] | – |
| Cc1ccc(CN2CCCn3nc(C(=O)NCCc4ccc(Cl)cc4)cc3C2=O)cc1 | inconclusive: 10.3 µM [cytotoxic, partial curve] | – |
| Fc1ccc(-c2nnc(NC3=NCCCCC3)o2)cc1 | inconclusive: 14.6 µM [cytotoxic, partial curve, poor fit] | – |
| CCc1ccc(NC(=O)CSc2nccn(-c3ccc4c(c3)OCCO4)c2=O)cc1 | inconclusive: 0.0065 µM [cytotoxic, full curve] | – |
| O/N=C/Cc1[nH]c2ccccc2c1-c1ccccc1 | – | inactive: 6.01% |
| COc1ccccc1Cn1c(=S)[nH]c2cc(C(=O)NCCCN3CCOCC3)ccc2c1=O | inconclusive: 18.4 µM [cytotoxic, single point] | – |

Four entries from above, with tabs.
Compound	Potency	activity change, negative = cytotoxic
COc1ccc(CN2CCCC(C(=O)N3CCc4ccccc4C3)C2)cc1OC (stereo unspecified)	–	inactive: 9.73%
Cc1ccc(S(=O)(=O)NCCC(c2ccc(F)cc2)c2ccco2)cc1 (stereo unspecified)	inconclusive: 20.6 µM [cytotoxic, single point]	–
COc1cccc(CNc2ccc3c(c2)ncn3C(C)C)c1OC	inconclusive: 29.1 µM [cytotoxic, single point]	–
NC(=O)c1cccc(-c2ccnc3c2CC(C(=O)NCc2ccccc2)O3)c1 (stereo unspecified)	active: 3.66 µM	–
